# Data published in patent US12234228B2, “Nitric oxide donor and anti-oxidant compounds” (University of North Texas Health Science Center, priority 2018, dated 2025).
# Some results were stated once for a whole list of compounds, not compound by compound.
# System: HUVEC
# Assay: HUVEC viability / cytoprotection under H2O2 induced oxidative stress (MTT)
# Format: cell-based, Human
row,SMILES,doses showing cytoprotective activity
1,Nc1c[n+](C2CCSCC2)no1 [SA-9],0.5 to 100 µM
2,Nc1c[n+](C2CCS(=O)(=O)CC2)no1 [SA-10],0.5 to 100 µM
